Reference: PubChem BioAssay AID1259331 (Drosophila RNAi Screening Center, 2017)
This is an unselected part of about 3,100 reagents tested. Over the whole deposit, 126 (4.1%) were called active. 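Calls are per reagent; zinc was so toxic that few knock-downs lowered ATP further, so most hits raise ATP.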 Raw values are not corrected between plates. A number with no mark means an inactive call. A plus sign joins genes that one reagent is predicted to hit. No sequences are given here. Not stated in the record: the amount of reagent.

Test: 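Genes whose knock-down changes cell survival under toxic zinc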 (primary screen)
Cells: Drosophila S2R+ cells
Knock-down reagent: long dsRNA against Drosophila genes
Duration: 5 days (4 days knock-down, then 1 day zinc)
Conditions: zinc chloride at 15 mM final level for 1 day
Measured: 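Total cellular ATP measured by luciferase luminescence as a viability proxy, turned into Z scores from three plate copies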
Reading the numbers: mean Z score: higher = more ATP than other wells, better survival under zinc; ATP luminescence: higher = more ATP, more viable cells
Call rule: 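Hit when the absolute Z score is greater than 1.5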
Meaning of the calls: active = hit, ATP up or down; inactive = not a hit

The opening 10 entries, ahead of the listing:
no.	Gene	DRSC id	mean Z score	ATP luminescence, replicate 1	ATP luminescence, replicate 2
1	LpR2 (GeneID 43105)	DRSC13726	-0.146	43194	46331
2	LpR2 (GeneID 43105)	DRSC13728	-0.0591	75964	63046
3	LpR2 (GeneID 43105)	DRSC25588	0.196	64696	53327
4	FucT6 (GeneID 32122)	DRSC19848	-0.418	41616	40416
5	FucT6 (GeneID 32122)	DRSC26057	0.104	55459	57374
6	CG1909 (GeneID 43800)	DRSC17150	-0.425	41431	41656
7	CG1909 (GeneID 43800)	DRSC39638	0.247	63770	61164
8	CG13920 (GeneID 38203)	DRSC08389	-0.602	26822	25760
9	CG13920 (GeneID 38203)	DRSC39516	-0.184	50721	47377
10	CG13077 (GeneID 35252)	DRSC02181	-0.0365	46177	38668

The listing, from the start:
no.	Gene	DRSC id	mean Z score	ATP luminescence, replicate 1	ATP luminescence, replicate 2
1	LpR2 (GeneID 43105)	DRSC13726	-0.146	43194	46331
2	LpR2 (GeneID 43105)	DRSC13728	-0.0591	75964	63046
3	LpR2 (GeneID 43105)	DRSC25588	0.196	64696	53327
4	FucT6 (GeneID 32122)	DRSC19848	-0.418	41616	40416
5	FucT6 (GeneID 32122)	DRSC26057	0.104	55459	57374
6	CG1909 (GeneID 43800)	DRSC17150	-0.425	41431	41656
7	CG1909 (GeneID 43800)	DRSC39638	0.247	63770	61164
8	CG13920 (GeneID 38203)	DRSC08389	-0.602	26822	25760
9	CG13920 (GeneID 38203)	DRSC39516	-0.184	50721	47377
10	CG13077 (GeneID 35252)	DRSC02181	-0.0365	46177	38668
11	CG13077 (GeneID 35252)	DRSC39515	-0.166	52521	47435
12	Zip88E (GeneID 41847)	DRSC15562	-0.17	35318	58421
13	Zip88E (GeneID 41847)	DRSC25826	0.0359	56499	57219
14	LRP1 (GeneID 35799)	DRSC07238	-0.373	74636	67845
15	et (GeneID 32975)	DRSC19582	-0.338	40090	37898
16	CG4743 (GeneID 43101)	DRSC15636	-0.243	35873	55539
17	Gr2a (GeneID 31093)	DRSC18603	-0.625	54253	57151
18	Gr2a (GeneID 31093)	DRSC39727	-0.391	50172	56412
19	teq (GeneID 39048)	DRSC11301	-0.29	75879	55779
20	teq (GeneID 39048)	DRSC11302	-0.266	40948	45310
21	Alg3 (GeneID 37754)	DRSC04700	-0.352	28132	29119
22	MFS3 (GeneID 33292)	DRSC00664	0.608	51098	49829
23	MFS3 (GeneID 33292)	DRSC28601	0.511	71846	66634
24	Or59b (GeneID 37715)	DRSC04632	0.358	57408	44342
25	Ir76b (GeneID 40198)	DRSC10831	-0.554	68469	57374
26	Ir76b (GeneID 40198)	DRSC39663	0.149	67372	58421
27	Pdfr (GeneID 31234)	DRSC18614	1.52 (active)	86531	96052
28	Pdfr (GeneID 31234)	DRSC39789	-0.479	44737	54493
29	Nmda1 (GeneID 36419)	DRSC07479	-0.0445	28879	31162
30	Nmda1 (GeneID 36419)	DRSC26357	0.303	58506	61198
31	rdo (GeneID 35077)	DRSC02452	-0.129	51235	57768
32	rdo (GeneID 35077)	DRSC25572	-0.438	42902	53996
33	Or74a (GeneID 39929)	DRSC11245	-0.313	71569	55213
34	CG9447 (GeneID 35597)	DRSC05008	-0.193	81607	65742
35	bdg (GeneID 36747)	DRSC07136	0.19	34764	33027
36	5-HT1B (GeneID 37191)	DRSC05031	-0.424	59123	63736
37	5-HT1B (GeneID 37191)	DRSC25996	0.246	60846	58677
38	Or1a (GeneID 30978)	DRSC18689	-0.331	58369	62810
39	Or1a (GeneID 30978)	DRSC39473	-0.272	52967	43914
40	CG2121 (GeneID 35814)	DRSC06819	-0.231	27024	31827
41	CG2121 (GeneID 35814)	DRSC06820	-0.406	71436	64799
42	cdm (GeneID 42171)	DRSC16213	-0.297	42366	43468
43	shakB (GeneID 33062)	DRSC20585	0.119	42002	43318
44	shakB (GeneID 33062)	DRSC22817	-0.46	41462	42245
45	shakB (GeneID 33062)	DRSC26262	-0.0465	56325	54167
46	cry (GeneID 42305)	DRSC16928	-0.15	36182	52041
47	cry (GeneID 42305)	DRSC39669	0.495	67183	67989
48	CG12061 (GeneID 3354990)	DRSC20715	-0.211	38816	42574
49	CG12061 (GeneID 3354990)	DRSC39829	-0.135	50995	57832
50	Prestin (GeneID 39996)	DRSC10507	-0.291	71136	56379
51	CG30471 (GeneID 246633)	DRSC07096	-0.495	23543	30833
52	aph-1 (GeneID 33467)	DRSC00547	0.0758	54047	60735
53	aph-1 (GeneID 33467)	DRSC39729	0.269	64919	63547
54	CG10226 (GeneID 38725)	DRSC09715	-0.377	28827	29638
55	Orct (GeneID 42891)	DRSC16777	-0.339	40536	43674
56	Orct (GeneID 42891)	DRSC25574	-0.595	38856	49006
57	Gr9a (GeneID 318158)	DRSC22506	0.259	56482	64010
58	Gr9a (GeneID 318158)	DRSC39581	-0.115	61227	57185
59	Tsp66A + CG42660 + CG42661	DRSC10233	-0.775	60941	52144
60	emei (GeneID 39250)	DRSC10897	-0.12	37999	42487
61	emei (GeneID 39250)	DRSC22684	0.826	60985	57631
62	SerT (GeneID 37895)	DRSC04655	0.118	53961	43194
63	SerT (GeneID 37895)	DRSC28934	0.605	70802	70630
64	Ork1 (GeneID 32020)	DRSC20266	-0.156	42902	48237
65	Ork1 (GeneID 32020)	DRSC39464	0.0411	50471	49034
66	CG10486 (GeneID 38664)	DRSC09735	-0.0666	73049	59466
67	CG10486 (GeneID 38664)	DRSC39429	-0.0208	49692	47943
68	CG6845 (GeneID 38019)	DRSC08576	-0.214	30521	32359
69	CG6845 (GeneID 38019)	DRSC26319	0.0949	53567	60015
70	Ostgamma (GeneID 34137)	DRSC03074		4.29e5	4.49e5
71	Ostgamma (GeneID 34137)	DRSC39487	0.145	53208	51406
72	CG17036 (GeneID 34679)	DRSC02564	0.527	57614	43091
73	CG17036 (GeneID 34679)	DRSC28145	-0.21	56945	54664
74	Or59c (GeneID 37716)	DRSC04633	0.00565	50069	42175
75	Or59c (GeneID 37716)	DRSC39767	-0.187	51338	55968
76	Or19a + Or19b	DRSC22604	0.0229	49760	48406
77	Or19a + Or19b	DRSC39643	0.0305	67048	54990
78	Sras (GeneID 44002)	DRSC11287	0.0327	78469	58660
79	GlyT (GeneID 37772)	DRSC04512	1.06	63839	49898
80	GlyT (GeneID 37772)	DRSC26130	-0.133	55693	54167
81	Or19a (GeneID 59214)	DRSC20684	-0.0949	45868	40931
82	sut2 (GeneID 44269)	DRSC07701	-0.687	26487	27664
83	sut2 (GeneID 44269)	DRSC39500	0.718	58490	62295
84	jagn (GeneID 40714)	DRSC12152	-0.504	27868	28468
85	jagn (GeneID 40714)	DRSC39810	0.351	62844	59397
86	wwk (GeneID 34886)	DRSC01941	0.0403	53876	40536
87	Tango9 (GeneID 41450)	DRSC14173	0.0962	44981	47429
